We go through one substance from article PMC6879747.

The chains behind the UniProt entries cited, without tags or fusion partners.
UniProt Q9DCD6: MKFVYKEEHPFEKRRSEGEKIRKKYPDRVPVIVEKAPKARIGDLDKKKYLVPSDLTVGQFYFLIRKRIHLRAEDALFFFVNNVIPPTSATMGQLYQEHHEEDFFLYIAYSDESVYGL

Results are given in words; binding and its absence hold for the method and conditions named. In cells and extracts the contact can be indirect. Some binding calls cover weakened binding; strength is not graded here.

The target in the experiment is T1, Protrudin (mouse (endogenous in hippocampus of C57/BL6 mice)) (UniProt Q3TXX3).
T1 sequence: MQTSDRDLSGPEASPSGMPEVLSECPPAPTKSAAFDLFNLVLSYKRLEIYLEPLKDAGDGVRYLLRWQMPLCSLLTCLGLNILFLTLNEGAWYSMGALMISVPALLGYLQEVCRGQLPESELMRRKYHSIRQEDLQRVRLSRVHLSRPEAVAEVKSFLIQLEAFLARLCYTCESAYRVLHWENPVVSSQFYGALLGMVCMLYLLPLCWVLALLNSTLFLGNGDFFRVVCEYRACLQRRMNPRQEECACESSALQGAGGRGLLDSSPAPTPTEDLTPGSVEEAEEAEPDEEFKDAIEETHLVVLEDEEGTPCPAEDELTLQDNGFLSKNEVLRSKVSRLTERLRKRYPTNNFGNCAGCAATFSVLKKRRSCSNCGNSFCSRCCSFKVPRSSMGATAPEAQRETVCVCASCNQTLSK
Kind of experiment: co-IP; extracts of hippocampal tissue from PTZ-induced epileptic mice; anti-protrudin, anti-GABAARβ2/3, anti-GABARAP or control IgG at 4°C for 12 h, then protein A/G agarose beads at 4°C overnight; immunoblot; quantitative co-IP also done in mice injected with LV-GFP or LV-protrudin.

Take “GABA receptor-associated protein (from UniProt Q9DCD6 1-117)”: the binding result was “binds”.
